PubChem BioAssay AID652243 | Drosophila RNAi Screening Center | 2013
The deposit covers about 24,000 reagents; this is a random part of those with a known target gene and a result. In the full data, 246 (1%) were called active. 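Plates not normalised; calls are printed but the firefly/Renilla ratio behind them is not deposited; fold cut for lowering reported inconsistently.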 Raw values are not corrected between plates. The numbers tell different reagents against one gene apart. Not stated in the record: the amount of reagent.

- Purpose: 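Fly regulators of androgen-dependent reporter output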 (primary screen)
- Cells: Drosophila S2R+ cells
- Knock-down reagent: long dsRNA against Drosophila genes
- Timing: 72 h (48 h, then 24 h hormone)
- Challenge: synthetic androgen R1881 at 10 nM for 24 h
- Read-out: 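Firefly light from an androgen-responsive reporter and Renilla control light per well, raw and unnormalised, for each of two replicates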
- Direction: firefly reporter light: higher = more light from androgen-responsive reporter; Renilla control light: higher = more constitutive control signal (cell number, transfection)
- Active means: 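Across duplicate plates, a knock-down whose log firefly/Renilla ratio shifted a set fold down or up from the GFP/LacZ control mean was a hit; the downward cut appears as both 1.5 and 3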
- Calls: active = hit: reporter lowered or raised; inactive = no hit

no.	gene	dsRNA no.	firefly reporter light, replicate 1	firefly reporter light, replicate 2	Renilla control light, replicate 1	Renilla control light, replicate 2	call
1	AOX1 (Aldehyde oxidase 1)	1	1.15e5	1.01e5	3.92e5	5.57e5	inactive
2	AOX1 (Aldehyde oxidase 1)	2	4.80e5	7.13e5	7.62e5	1.06e6	inactive
3	Pi3K59F (Phosphatidylinositol 3-kinase 59F)	1	6.51e5	6.96e5	1.19e6	1.53e6	inactive
4	Pi3K59F (Phosphatidylinositol 3-kinase 59F)	2	4.77e5	3.94e5	1.51e6	1.21e6	inactive
5	Pi3K59F (Phosphatidylinositol 3-kinase 59F)	3					inactive
6	Pi3K59F (Phosphatidylinositol 3-kinase 59F)	4					inactive
7	CG32599	1	42187	49224	4.01e5	3.94e5	inactive
8	CG32599	2	3.16e5	2.56e5	8.26e5	5.10e5	inactive
9	ix (intersex)	1	61343	60891	8.47e5	8.72e5	active
10	ix (intersex)	2	6.45e5	3.86e5	6.26e5	6.01e5	inactive
11	Psf2 (Partner of Sld Five 2)	1	1.36e5	1.11e5	8.42e5	6.26e5	inactive
12	CG12911	1	2.83e5	1.46e5	1.76e6	1.03e6	inactive
13	CG12911	2	9.77e5	6.02e5	2.66e6	1.69e6	inactive
14	CG32551	1	5.90e5	7.18e5	4.01e5	3.62e5	inactive

In a second layout: results already given.
gene,dsRNA no.,"firefly reporter light, replicate 1","firefly reporter light, replicate 2","Renilla control light, replicate 1","Renilla control light, replicate 2",call
CG32599,2,3.16e5,2.56e5,8.26e5,5.10e5,inactive
ix (intersex),1,61343,60891,8.47e5,8.72e5,active

The listing continues.
no.	gene	dsRNA no.	firefly reporter light, replicate 1	firefly reporter light, replicate 2	Renilla control light, replicate 1	Renilla control light, replicate 2	call
15	CG3226	1	1.18e5	1.24e5	1.03e6	7.93e5	inactive
16	CG13361	1	1.15e5	1.89e5	2.96e6	3.01e6	inactive
17	CG13361	2	5.57e5	4.54e5	1.56e6	1.74e6	inactive
18	HnRNP-K (Heterogeneous nuclear ribonucleoprotein K)	1	4.87e5	3.57e5	4.06e6	3.15e6	inactive
19	HnRNP-K (Heterogeneous nuclear ribonucleoprotein K)	2	4.54e5	5.33e5	1.93e5	2.77e5	inactive
20	HnRNP-K (Heterogeneous nuclear ribonucleoprotein K)	3	8.08e5	6.77e5	1.10e6	1.11e6	inactive
21	CG9263	1	4.17e5	3.22e5	2.30e6	2.06e6	inactive
22	AhcyL2 (Adenosylhomocysteinase like 2)	1	83767	93490	1.44e6	1.65e6	inactive
23	CG11570	1	2.41e5	2.79e5	2.37e6	1.63e6	inactive
24	Ppr-Y	1	7.50e5	9.66e5	6.81e5	7.50e5	inactive
